# Measured values from the SangsterLogP compilation.
smiles,measurement,value
NCCC[C@H](N)C(=O)O,logP,-4.22
